Source: PubChem BioAssay AID2685 (National Center for Advancing Translational Sciences (NCATS), 2010)
The other results are listed elsewhere or left out. The main result of the screen is listed elsewhere. These columns were measured beside it and carry no call. The list favours compounds with an active or inconclusive main result. Words in brackets tell the shape of the fitted curve; partial curves, single points and poor fits give uncertain potencies.

Test: qHTS Assay for Lipid Storage Modulators in Drosophila S3 Cells;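 as to cell number change: cells counted by Cell Tracker Red CMTPX staining in the red channel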
Conditions: BODIPY lipid droplet fluorescence, 18-24 h; for cell number change: measured here: cell count max response, cells fed with added oleic acid
How it was run: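 Laser-scanning cytometry quantifies lipid droplet accumulation (500–530 nm total intensity; droplet/cell object ratio) in oleic acid-fed (400 uM added) Drosophila S3 cells treated with a concentration series. 20 uM Triacsin C defined 100% inhibition.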

[1] = measured here: lipid fluorescence (Fed channel) AC50, cells fed with added oleic acid
[2] = measured here: cell number channel AC50, cells fed with added oleic acid

Row | Structure (SMILES) | cell number change | AC50 [1] | AC50 [2]
1 | CC1Oc2ccccc2N(CC(=O)NCCCN2CCOCC2)C1=O (configuration not stated) | -12.8% | 29.1 µM [falling, single point] | –
2 | COC(=O)c1cnn(-c2ccc(C(=O)Nc3ccc(C(C)=O)cc3)cc2)c1N | 37.6% | – | 14.6 µM [rising, partial curve]
3 | COc1ccc(Cl)cc1Nc1nc(-c2sc(NC(=O)c3ccccc3)nc2C)cs1 | -42.2% | 10.3 µM [falling, partial curve] | 9.2 µM [falling, partial curve]
4 | O=C(Oc1ccc(Br)cc1)c1n[nH]c(=O)c2ccccc12 | -35.6% | – | –
5 | C/C(=N\OCC(=O)Nn1c(=O)[nH]c2ccccc2c1=O)c1cccs1 | -5.46% | – | –
6 | CC(=O)N(/N=C/c1ccc(C)cc1)c1nc(CCl)cs1 | 11.3% | – | –
7 | NC(=O)CC(NC(=O)c1cccc(Br)c1)c1ccc(N2CCC(N3CCCCC3)CC2)c([N+](=O)[O-])c1 (configuration not stated) | 14.4% | 0.651 µM [rising, single point] | –
8 | O=[N+]([O-])c1cc(Cl)ccc1NCCc1ccccn1 | 14.5% | – | –
9 | CCOc1ccc(S(=O)(=O)N(CC(=O)N/N=C/c2cccs2)c2ccc(C)cc2)cc1 | 86.8% | 3.66 µM [rising, full curve] | 3.66 µM [rising, full curve]
10 | COC(=O)c1ccc(NC(C)=O)o1 | -14.7% | – | –
11 | Cc1ccc(-n2c(C)cc(/C=N/Nc3ccc([N+](=O)[O-])cn3)c2C)cc1 | -15.5% | 6.51 µM [falling, single point] | –
12 | O=C(Nc1ccc(N2CCCCC2)c(Cl)c1)c1ncn[nH]1 | -37.9% | – | 14.6 µM [falling, single point]
13 | NC(=O)N1CCN(C(=O)c2ccco2)CC1 | -7.59% | 20.6 µM [falling, single point] | –
14 | Cc1nn(CC2CCCCC2)c(N)c1-c1ccccc1 | – | – | 0.731 µM [rising, partial curve]
15 | Cc1ccc(C)c(NS(=O)(=O)c2ccc(NC(=O)c3ccco3)cc2)c1 | – | 29.1 µM [falling, single point] | –
16 | O=C(CCC(=O)c1ccccc1)Nc1ccc(C(=O)O)cc1 | – | 4.61 µM [rising, partial curve] | –
17 | COc1ccc(NC(=O)c2cc(-c3cc(OC)c(OC)c(OC)c3)nc3ccccc23)c(OC)c1 | 10.5% | – | –
18 | CCOc1ccc(NS(=O)(=O)c2ccc(C(=O)NCc3cccnc3)cc2)cc1 | -14% | 0.651 µM [falling, partial curve, poor fit] | –
19 | CC(Sc1n[nH]c(N)n1)C(=O)Nc1cccc2ccccc12 (configuration not stated) | -19.4% | 16.4 µM [falling, single point] | –
20 | CC12CCC(C(=O)N(CSC(=S)N/N=C\c3ccccc3O)C1=O)C2(C)C (configuration not stated) | -6.78% | 14.6 µM [falling, single point] | –

Row | Structure (SMILES) | cell number change | AC50 [1] | AC50 [2]
21 | CC1CCC(NC(=O)c2ccc(NC(=O)CC3SC(N4CCCC4)=NC3=O)cc2)CC1 (configuration not stated) | 31.6% | 0.0082 µM [rising, full curve, poor fit] | 3.26 µM [rising, full curve]
22 | O=C(CCc1ccccc1)n1nc(-c2ccco2)nc1SCc1ccccc1 | 52.4% | – | 29.1 µM [rising, single point]
23 | COC(=O)C1=C(N)Oc2cc(C)n(Cc3cccnc3)c(=O)c2C1c1ccccc1OC (configuration not stated) | -1.29% | 5.8 µM [rising, single point] | –
24 | CCC(=O)Nc1cccc(Oc2nc(C)cc(C)c2C#N)c1 | 24.7% | 0.259 µM [falling, full curve] | 1.84 µM [rising, full curve, poor fit]
25 | O=C(Nc1nc2ccccc2s1)NC1CCCCC1 | -39.4% | – | 29.1 µM [falling, single point]
26 | COc1ccc2oc(=O)c(C(=O)N3CCN(c4ccccc4C)CC3)cc2c1 | – | 1.16 µM [rising, partial curve] | 5.17 µM [rising, partial curve]
27 | CC1(C)NC(=O)N(CC(=O)N2CCCC(C(F)(F)F)C2)C1=O (configuration not stated) | -24.3% | 5.17 µM [falling, full curve] | 0.0326 µM [falling, full curve, poor fit]
28 | COc1ccc(-c2cc(C(=O)NCCN3CCOCC3)no2)cc1OC | 12.6% | 11.6 µM [falling, single point] | –
29 | CCOc1ccc(OCCC(=O)Nc2cccc(S(=O)(=O)N3CCCC3)c2)cc1 | 122% | – | 11.6 µM [rising, partial curve]
30 | Cc1ccc(CNS(=O)(=O)c2c(C)nc3scc(C)n3c2=O)cc1 | 12.7% | 29.1 µM [rising, single point] | 2.31 µM [rising, single point]
31 | COc1cccc(/C=N/N2CCN(C)CC2)c1 | 16.8% | – | 6.51 µM [rising, partial curve]
32 | Cc1ccc(NC(=O)C(Cc2ccccc2)N2C(=O)C3C4CCC(C4)C3C2=O)cc1Cl (configuration not stated) | -4.34% | 0.184 µM [falling, full curve, poor fit] | –
33 | COc1ccc(C(=O)CC2OC(=O)c3c2ccc(OC)c3OC)cc1 (configuration not stated) | 0.0238% | 6.51 µM [falling, single point] | –
34 | CN1CCN(Cc2c(C#N)c3ccccc3n2C)CC1 | -5.17% | 5.8 µM [falling, full curve] | –
35 | Cc1ccc(OCCNC(=O)c2ccccc2SCC(=O)N2CCCC2)cc1 | -38.9% | – | 18.4 µM [falling, partial curve]
36 | O=C(CCN1CCOCC1)NNC(=O)/C(=C/c1ccccc1)NC(=O)c1ccccc1 | 24.4% | – | 3.66 µM [falling, single point]
37 | COCCCNC(=O)Nc1ccc(F)cc1F | -19.5% | – | –
38 | CN(Cc1ccc(OCC(O)CN2CCCCC2)cc1)Cc1ccnc2ccccc12 (configuration not stated) | -35.8% | 13 µM [falling, partial curve] | 14.6 µM [falling, single point]
39 | COc1cc(Cl)c(C)cc1NC(=O)CSc1ccccc1 | -12.5% | – | 6.51 µM [falling, single point]
40 | COc1ccc(C(=O)n2nc(-c3ccc(Cl)cc3)nc2N)cc1OC | -77.1% | 16.4 µM [falling, single point] | 8.2 µM [falling, partial curve]

Full records from above. Values in the order: cell number change	AC50 [1]	AC50 [2]
`CC1(C)NC(=O)N(CC(=O)N2CCCC(C(F)(F)F)C2)C1=O` (configuration not stated) is listed as -24.3%	5.17 µM [falling, full curve]	0.0326 µM [falling, full curve, poor fit]
`O=C(Nc1nc2ccccc2s1)NC1CCCCC1` is listed as -39.4%	–	29.1 µM [falling, single point]
`COc1ccc2oc(=O)c(C(=O)N3CCN(c4ccccc4C)CC3)cc2c1` is listed as –	1.16 µM [rising, partial curve]	5.17 µM [rising, partial curve]
`CC1CCC(NC(=O)c2ccc(NC(=O)CC3SC(N4CCCC4)=NC3=O)cc2)CC1` (configuration not stated) is listed as 31.6%	0.0082 µM [rising, full curve, poor fit]	3.26 µM [rising, full curve]

Next part

Row | Structure (SMILES) | cell number change | AC50 [1] | AC50 [2]
41 | CC(C)C(c1nnnn1Cc1ccc(F)cc1)N1CCN(C2CCCCC2)CC1 (configuration not stated) | -9.32% | – | 0.0731 µM [falling, full curve, poor fit]
42 | O=C(c1ccc(Cl)c(Cl)c1)N1CCCC1 | -13.7% | 0.92 µM [falling, full curve, poor fit] | 0.00517 µM [falling, full curve, poor fit]
43 | CCc1ccccc1Oc1coc2cc(O)ccc2c1=O | -25% | 4.11 µM [falling, partial curve, poor fit] | –
44 | Cc1ccc(C)c(S(=O)(=O)N2CCC3(CC2)OCCN3S(=O)(=O)c2cccs2)c1 | 1.35% | – | 2.91 µM [rising, single point]
45 | O=C(N/N=C/c1c[nH]c2ccc(Br)cc12)c1ccn(Cc2ccc(Cl)cc2)n1 | -12% | – | –
46 | Cc1ccccc1N1CC(O)(c2ccccc2)[N+]2=C1SCC2 (configuration not stated) | -15.4% | 16.4 µM [falling, single point] | –
47 | COCCn1c(SCC(=O)Nc2ccc(NC(=O)c3ccco3)c(OC)c2)nc2ccccc2c1=O | -86.1% | – | 13 µM [falling, partial curve, poor fit]
48 | O=C(CC1NCCc2ccccc21)Nc1ccccc1Cl (configuration not stated) | -15.7% | – | –
49 | COC(=O)C1=CO[C@@H](C)[C@H]2CN3CCc4c([nH]c5ccccc45)[C@@H]3C[C@H]12 | 33.2% | 0.366 µM [rising, full curve, poor fit] | 0.326 µM [rising, full curve, poor fit]
50 | O=C(Nc1nn[nH]n1)c1cccc(Oc2ccccc2)c1 | -76.7% | 29.1 µM [falling, single point] | 16.4 µM [falling, partial curve, poor fit]
51 | O=C(NC1CCCCC1)c1cc(S(=O)(=O)N2CCOCC2)ccc1Cl | 1.3% | 0.13 µM [rising, full curve, poor fit] | –
52 | O=C(Nc1nccs1)C1C2/C=C\CCCCC21 (configuration not stated) | -29.6% | – | –
53 | Cc1cccc(C(=O)N2c3ccccc3C(=O)OC2c2ccc3c(c2)OCO3)c1 (configuration not stated) | – | 0.00517 µM [falling, full curve, poor fit] | –
54 | Cc1ccc(/C=C/C(=O)OCC(=O)N2CC(=O)Nc3ccccc32)o1 | 30.3% | – | 0.259 µM [rising, full curve, poor fit]
55 | O=C(COC(=O)C1C2CC3OC(=O)C1C3C2)Nc1cccc(Cl)c1 (configuration not stated) | 8.12% | 2.91 µM [rising, single point] | –
56 | COc1cccc(CN2CCNC(=O)C2CC(=O)N(C)CC2CCOCC2)c1 (configuration not stated) | 7.5% | 29.1 µM [rising, single point] | –
57 | C[C@H](NC(=O)N1CCn2c1nc1ccccc12)C(=O)NC1CC1 | -16.5% | 6.51 µM [falling, single point] | –
58 | O=C(c1ccco1)N1CCN(S(=O)(=O)c2ccc(S(=O)(=O)NC3CCCCC3)cc2)CC1 | -13.4% | 0.00461 µM [falling, full curve, poor fit] | –
59 | Cc1cc(OCCN2CCOCC2)ccc1C(C)C | 15.2% | 0.146 µM [rising, full curve, poor fit] | –
60 | COc1ccc(-c2nn(CCC(=O)O)cc2CCC(=O)O)cc1 | -21.7% | 1.16 µM [falling, full curve] | –
